The list shows only some results of the screen, not a fair sample: it is rich in T/C values a quarter to a half above the control, in often repeated tests (any T/C) and in doses without a T/C. Further doses and runs are listed elsewhere. T/C: endpoint of the treated group in % of that of the vehicle group. Some entries give survivors of the animals treated and no T/C: the source holds a T/C of zero for them, seemingly a mark for toxic or unscored doses. Some survivor counts are full or nearly so, which does not show that the dose was tolerated: the source hardly ever lists a survival T/C far under the control, and the zero likely stands for such cases as well. Survivors were counted at the toxicity check, usually on the fifth day, unless a day is given; later deaths do not show. Schedule codes are those of the source, taken here to give the interval after Q, in days (D) or hours (H), and the number of doses after X. Where survival is the endpoint, the PubChem record calls one and a half times the control and up active, and a quarter to a half above the control has no call in these data; cut-offs in other NCI protocols can differ.
Tested on: CD2F1 mice, L1210 leukemia ip, survival T/C
Assay: NCI In Vivo Anticancer Drug Screen. Data for tumor model L1210 Leukemia (intraperitoneal) in CD2F1 (CDF1) mice
Details: T/C endpoint: mean survival time, higher T/C = longer survival
Method in brief: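 Each value reflects a quotient of treated over vehicle control outcomes in mice with a transplanted tumor.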

[1] = dose: 200.0 mg/kg/injection, schedule: Q01DX009 (ip), vehicle: saline with Tween-80
[2] = dose: 200.0 mg/kg/injection, schedule: Q04DX003 (ip), vehicle: saline with Tween-80
[3] = dose: 400.0 mg/kg/injection, schedule: Q04DX003 (ip), vehicle: saline with Tween-80
[4] = dose: 100.0 mg/kg/injection, schedule: Q04DX003 (ip), vehicle: saline with Tween-80
[5] = dose: 400.0 mg/kg/injection, schedule: Q01DX009 (ip), vehicle: other
[6] = dose: 600.0 mg/kg/injection, schedule: Q01DX009 (ip), vehicle: other

Q: For `OCc1ccn2c1CCC2`, which survivor count (dose: 25.0 mg/kg/injection, schedule: Q01DX009 (ip), vehicle: Klucel (hydroxypropylcellulose) (HPC)) is on record?
A: 6 of 6

Q: And the survivor count (dose: 200.0 mg/kg/injection, schedule: Q01DX009 (ip), vehicle: Klucel (hydroxypropylcellulose) (HPC))?
A: 3 of 6

Q: Which survivor count [1] does the source give for `O=C1C=C(NNc2ccccc2)CCC1` here?
A: 1 of 6

Q: Which survivor count [2] does the source give for `O=C(O)c1ccc(Cl)cc1Nc1ccc(Cl)cc1` here?
A: 2 of 6

Q: What about the survivor count [3] of the same molecule?
A: 0 of 6

Q: Which survivor count [3] does the source give for `O=C(O)c1cccc2c1-c1c(cccc1[N+](=O)[O-])C2` here?
A: 2 of 6

Q: How did the survivor count (dose: 25.0 mg/kg/injection, schedule: Q01DX009 (ip), vehicle: other) turn out when `C/C=C/CC(C/C=C/C)C1CC[N-]CC1.C/C=C/CC(C/C=C/C)C1CC[N-]CC1.[Cl][Pt+2]([Cl])([Cl])[Cl]` was run?
A: 6 of 6

Q: And the survivor count (dose: 50.0 mg/kg/injection, schedule: Q01DX009 (ip), vehicle: other)?
A: 6 of 6

Q: What about the survivor count (dose: 200.0 mg/kg/injection, schedule: Q01DX009 (ip), vehicle: other) of the same molecule?
A: 3 of 6

Q: How did the survivor count (dose: 25.0 mg/kg/injection, schedule: Q04DX003 (ip), vehicle: saline with Tween-80) turn out when `O=C(OC(CC[P+](c1ccccc1)(c1ccccc1)c1ccccc1)(C(=O)c1ccccc1)c1ccccc1)c1ccccc1` (centres undefined) was run?
A: 2 of 6

Q: What about the survivor count (dose: 50.0 mg/kg/injection, schedule: Q04DX003 (ip), vehicle: saline with Tween-80) of the same molecule?
A: 0 of 6

Q: What about the survivor count [4] of the same molecule?
A: 0 of 6

Q: How did the survivor count (dose: 0.19 mg/kg/injection, schedule: Q01DX009 (ip), vehicle: saline) turn out when `C[CH2][Sn](/[CH]=C/C=C/OC)([CH2]C)[CH2]C` was run?
A: 0 of 3

Q: What about the survivor count (dose: 3.12 mg/kg/injection, schedule: Q01DX009 (ip), vehicle: saline) of the same molecule?
A: 0 of 3

Q: What about the survivor count (dose: 6.25 mg/kg/injection, schedule: Q01DX009 (ip), vehicle: saline) of the same molecule?
A: 0 of 3

Q: And the survivor count (dose: 12.5 mg/kg/injection, schedule: Q01DX009 (ip), vehicle: saline)?
A: 0 of 3

Q: `O=C(O)c1ccc(CC23CC4CC(CC(C4)C2)C3)cc1` was tested. Which survivor count (dose: 200.0 mg/kg/injection, schedule: Q01DX001 (ip), vehicle: saline with Tween-80) did it give?
A: 6 of 6

Q: How did the T/C [5] turn out when `CC(O)CNCCNC(=O)CNC(=O)C=[N+]=[N-]` (centres undefined) was run?
A: 132 % of control

Q: And the survivor count [5]?
A: 6 of 6

Q: And the T/C [6]?
A: 132 % of control

Q: What about the survivor count [6] of the same molecule?
A: 6 of 6

Q: And the survivor count (dose: 800.0 mg/kg/injection, schedule: Q01DX009 (ip), vehicle: other)?
A: 6 of 6

Q: And the survivor count (dose: 1000.0 mg/kg/injection, schedule: Q01DX009 (ip), vehicle: other)?
A: 6 of 6

Q: With `O=C(Cn1[nH]c(=O)ccc1=O)c1ccccc1` as the molecule, how does the survivor count (dose: 100.0 mg/kg/injection, schedule: Q04DX002 (ip), vehicle: saline with Tween-80) read?
A: 3 of 3

Q: With `COc1ccc(/C=c2\[nH]c(=O)/c(=C/c3ccc(OC)c(OC)c3)[nH]c2=O)cc1OC` as the molecule, how does the survivor count [4] read?
A: 6 of 6

Q: What about the survivor count [2] of the same molecule?
A: 6 of 6

Q: What about the survivor count [3] of the same molecule?
A: 6 of 6

Q: How did the survivor count [1] turn out when `N=C1c2ccccc2-c2ccccc21` was run?
A: 1 of 6

Q: Which survivor count [3] does the source give for `CC(C)(C)OC(=O)NCCCC(=O)O` here?
A: 5 of 6

Q: Which survivor count [2] does the source give for `Clc1c(Cl)c(Cl)[c]([Hg][c]2c(Cl)c(Cl)c(Cl)c(Cl)c2Cl)c(Cl)c1Cl` here?
A: 2 of 6

Q: What about the survivor count [3] of the same molecule?
A: 0 of 6

Q: For `CCCC(C)C1=NC(C)(C)CCO1` (centres undefined), which survivor count [4] is on record?
A: 6 of 6

Q: And the survivor count [2]?
A: 0 of 6

Q: And the survivor count [3]?
A: 0 of 6

Q: For `CCCN1CCc2cc3c(cc2C1)OCO3`, which survivor count (dose: 200.0 mg/kg/injection, schedule: Q01DX001 (ip), vehicle: saline) is on record?
A: 0 of 6

Q: What about the survivor count (dose: 400.0 mg/kg/injection, schedule: Q01DX001 (ip), vehicle: saline) of the same molecule?
A: 0 of 6

Q: For `OC1CCCCCCCCCCC1C(O)(C(F)(F)F)C(F)(F)F` (centres undefined), which survivor count (dose: 400.0 mg/kg/injection, schedule: Q01DX001 (ip), vehicle: saline with Tween-80) is on record?
A: 1 of 6

Q: Which survivor count (dose: 200.0 mg/kg/injection, schedule: Q04DX003 (ip), vehicle: saline) does the source give for `C=C(C)CNCC(=C)C` here?
A: 0 of 6

Q: And the survivor count (dose: 400.0 mg/kg/injection, schedule: Q04DX003 (ip), vehicle: saline)?
A: 0 of 6

Reference: PubChem BioAssay AID256 (DTP/NCI, 2004)
